Assay results taken from PubChem BioAssay AID493014 (National Center for Advancing Translational Sciences (NCATS), 2011).
This is one part of the list. Shown are side measurements of this screen, not its main read-out; they come without a call. Compounds called inactive in the main read-out are mostly missing here. Words in brackets tell the shape of the fitted curve; partial curves, single points and poor fits give uncertain potencies.

Assay: qHTS Assay to Find Inhibitors of Chronic Active B-Cell Receptor Signaling
Details: ABC-DLBCL IkBa-CBG/CBR reporter, luminescence ratio (green luciferase fused to IkBa over red control in TMD8 lymphoma cells), 4 h
Summary of the method: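 Doxycycline induced both beetle luciferases in TMD8 lymphoma cells; IKK-driven degradation limits the IkappaBalpha-fused green signal, while red luminescence normalises for cell number and nonspecific effects. Compounds tested up to 46 uM, 4 hrs.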

[1] = measured here: CBR red luminescence, cell number
[2] = measured here: IkBa-CBG green luminescence

Row | SMILES | AC50 [1] | AC50 [2]
1 | CCN(CC)CCn1c(=N)n(CC(O)COc2cccc(C)c2)c2ccccc21 (configuration not stated) | 25.1 µM [falling, single point] | –
2 | C/C=C/c1ccc(OCC(=O)OCc2csc(Nc3ccc(C)cc3)n2)c(OC)c1 | 7.31 µM [rising, partial curve] | –
3 | Cc1cc(C(=O)CCl)c(C)n1CCc1ccc(F)cc1 | 22.4 µM [falling, partial curve] | –
4 | O=C(/C=C/c1ccco1)Nc1cccc(S(=O)(=O)N2CCOCC2)c1 | 7.31 µM [falling, partial curve] | –
5 | O=C(COC(=O)c1ccccc1)c1ccc2c(c1)OCCO2 | 32.6 µM [falling, single point] | –
6 | CCOc1ccc(NC(=O)c2cccnc2Cl)c([N+](=O)[O-])c1 | 20.6 µM [rising, partial curve, poor fit] | –
7 | CC1CCCC(C)N1C(=O)COC(=O)COc1ccc(C#N)cc1 (configuration not stated) | 0.651 µM [rising, full curve, poor fit] | –
8 | CCCCCCCNC(=O)CN1N=C(c2ccc(C)cc2)CCC1=O | 5.62 µM [rising, single point] | –
9 | CC(C)(C)C(=O)CSc1nc2ccccc2o1 | 0.282 µM [rising, full curve, poor fit] | –
10 | O=C(O)CC12CC3CC(C1)CC(n1ncc(N4CCC5(CC4)OCCO5)c(Cl)c1=O)(C3)C2 | 25.1 µM [falling, partial curve, poor fit] | –
11 | O=C(Nc1ccc(Br)cc1)c1ccc2ncsc2c1 | 7.94 µM [falling, partial curve] | –
12 | Cc1ccc2occ(/C=N/NC(=O)c3ccc(O)cc3)c(=O)c2c1 | 0.112 µM [falling, full curve, poor fit] | –
13 | Cc1ccc(NC(=O)CSc2nnc3ccc(-c4cccnc4)nn23)cc1 | 5.8 µM [rising, partial curve, poor fit] | –
14 | O=C(CC1OC(=O)c2ccccc21)NC1CCCCC1 (configuration not stated) | 12.6 µM [falling, partial curve] | –
15 | COc1cc(NC(=O)c2ccco2)c(OC)cc1NC(=O)Nc1cccc(Cl)c1 | 35.5 µM [falling, single point] | 15.8 µM [rising, partial curve, poor fit]
16 | C/[N+]([O-])=C/c1c(OCc2ccccc2)ccc2ccccc12 | 3.16 µM [rising, partial curve, poor fit] | –
17 | CCCCOC(=O)c1ccc(NC(=O)CSc2nncn2C)cc1 | 2.24 µM [rising, full curve, poor fit] | –
18 | C#CCOCCOCCOCCNc1nc(N2CCN(C(=O)CCCCCCCCCCNC(=O)[C@H](CCCCN)n3cc(C)nn3)CC2)nc(N2CCN(C(=O)CCCCCCCCCCNC(=O)[C@H](CCCN=C(N)N)n3cc(C[C@@H](C)CC)nn3)CC2)n1 | 3.26 µM [rising, partial curve, poor fit] | –
19 | O=C(/C=C/c1ccc(Br)o1)NC(c1ccccc1)c1ccccc1 | 23.1 µM [falling, single point] | –
20 | Cc1ccc(NC(=O)CSc2nc(=O)n(Cc3ccccn3)c3c2CCC3)cc1F | 35.5 µM [falling, single point] | –
21 | CC(C)c1nc(NCCN2CCOCC2)c(C#N)c2c1COC(C)(C)C2 | 1 µM [rising, full curve, poor fit] | –

In another format: results already given
Cc1cc(C(=O)CCl)c(C)n1CCc1ccc(F)cc1
  AC50 [1]: 22.4 µM [falling, partial curve]
CCCCOC(=O)c1ccc(NC(=O)CSc2nncn2C)cc1
  AC50 [1]: 2.24 µM [rising, full curve, poor fit]

More results follow.

Row | SMILES | AC50 [1] | AC50 [2]
22 | COC(=O)C1=C(NC(=O)COc2ccc3ccccc3c2)CCS1 | 2.06 µM [falling, partial curve, poor fit] | –
23 | CCn1c2ccccc2c2cc(/C=N/NC(=O)c3ccccc3)ccc21 | 7.08 µM [falling, partial curve, poor fit] | –
24 | CC1(C)COC(/C=C/c2cccc([N+](=O)[O-])c2)=N1 | 7.08 µM [falling, partial curve, poor fit] | –
25 | COc1ccc(C2CC(c3c(-c4ccccc4)c4cc(Cl)ccc4[nH]c3=O)=NN2C(=O)CCC(=O)O)cc1 (configuration not stated) | 35.5 µM [falling, single point] | –
26 | C=C(c1ccccc1)c1ccc(N(C)C)cc1 | 2.82 µM [falling, full curve, poor fit] | –
27 | Cn1c(=O)[nH]c(=O)c2c1nc(Br)n2CCCSc1nc2ccccc2o1 | 29.1 µM [falling, single point] | 23.1 µM [falling, single point]
28 | COc1ccccc1/C=C/C(=O)/C=C/c1ccccc1O | 11.2 µM [falling, partial curve, poor fit] | –
29 | CN(C(=O)c1ccccn1)c1nnc(-c2cnccn2)s1 | 2.51 µM [rising, full curve, poor fit] | –
30 | CC(C)CNC(=O)Nc1ccccc1F | 0.112 µM [rising, full curve, poor fit] | –
31 | COC(=O)c1ccsc1NC(=O)CSc1nnnn1Cc1ccccc1 | 5.8 µM [falling, partial curve, poor fit] | –
32 | Cc1c(C(=O)C(=O)NCc2ccco2)c2ccccc2n1C | 2.51 µM [rising, partial curve, poor fit] | –
33 | Nc1nc(-c2ccc(Cl)cc2)nn1C(=O)c1cccs1 | 0.355 µM [falling, full curve, poor fit] | –
34 | CCOc1cc2c3c(c1)C1(OCCO1)C(=O)N3C(C)(C)CC2C (configuration not stated) | 6.51 µM [falling, single point] | –
35 | CC1(C)CC(=O)C=C(c2cccc(Cl)c2O)C1 | 10.3 µM [rising, partial curve, poor fit] | –
36 | COC(=O)C1=CN(Cc2ccc(OC)c(OC)c2)C=C(C(=O)OC)C1c1cccc(O)c1 | 1 µM [rising, full curve, poor fit] | 0.891 µM [falling, full curve]
37 | COc1ccc(-c2nc3cnccn3c2NC(C)(C)CC(C)(C)C)cc1O | 35.5 µM [falling, single point] | –
38 | CCOC(=O)Cc1csc(NC(=O)c2ccco2)n1 | 29.1 µM [falling, single point] | –
39 | CCN=c1scc(-c2cccs2)n1/N=C/c1cc(OC)ccc1O | 0.00517 µM [rising, full curve, poor fit] | –
40 | COc1ccccc1C1CCN(Cc2cccc3ccccc23)CC1 | 35.5 µM [rising, single point] | –
41 | OCC1(O)OC[C@@H](O)[C@H]1O (some centres not stated) | 2.82 µM [falling, partial curve, poor fit] | –
42 | C=CCn1c(SCC(=O)N2CCN(CCO)CC2)nc2sc3c(c2c1=O)CCC3 | 14.1 µM [falling, partial curve, poor fit] | –

Quoted at random: two compounds from above
Row | SMILES | AC50 [1] | AC50 [2]
26 | C=C(c1ccccc1)c1ccc(N(C)C)cc1 | 2.82 µM [falling, full curve, poor fit] | –
32 | Cc1c(C(=O)C(=O)NCc2ccco2)c2ccccc2n1C | 2.51 µM [rising, partial curve, poor fit] | –

More results:

Row | SMILES | AC50 [1] | AC50 [2]
43 | CC(C)(C)NC(=O)CSC(=Nc1ccccc1F)NC#N | 13 µM [falling, partial curve, poor fit] | 25.9 µM [rising, partial curve, poor fit]
44 | CCCn1c(=O)c(C(=O)NCCCc2ccccc2)c(O)c2ccccc21 | 11.2 µM [rising, partial curve, poor fit] | –
45 | CCn1cc(/C=C(\NC(=O)c2ccccc2F)C(=O)NCCCN2CCOCC2)c2ccccc21 | 2.82 µM [falling, partial curve, poor fit] | –
46 | O=C(N/N=C\CCc1ccccc1)c1ccco1 | 18.4 µM [falling, partial curve, poor fit] | –
47 | NS(=O)(=O)c1cccc(-n2cnnn2)c1 | 3.16 µM [rising, partial curve, poor fit] | 6.31 µM [falling, single point]
48 | Cc1[nH]c2ccccc2c1/C=N/Nc1nc(Nc2ccccc2)nc(N2CCOCC2)n1 | 3.55 µM [falling, full curve] | –
49 | CN1CCC(Oc2ccccc2Sc2ccc(C(F)(F)F)cc2)CC1 | 14.6 µM [falling, single point] | –
50 | N#C/C(=C\c1cccs1)c1nc2ccccc2[nH]1 | 29.1 µM [falling, single point] | –
51 | O=C(N/N=C/c1ccco1)c1cc(-c2cccs2)[nH]n1 | 10.3 µM [falling, partial curve] | –
52 | COC(=O)c1ccc2nc(C)cc(Nc3ccc(N(C)C)cc3)c2c1 | 5.17 µM [falling, full curve] | –
53 | CN(C)C(=O)c1ccc(NC(=O)COC(=O)Cn2cc(C(F)(F)F)ccc2=O)cc1 | 29.1 µM [rising, single point] | –
54 | COc1cc(/C=C2\SC(=S)N(CCC(=O)N3CCCCC3)C2=O)cc(OC)c1OC | 10 µM [falling, partial curve] | –
55 | O=C(NC(Cc1ccccc1)C(=O)O)OCc1ccccc1 (configuration not stated) | 5.01 µM [rising, full curve, poor fit] | –
56 | Cc1cc(NS(=O)(=O)c2ccc(NC(=O)c3ccc(F)cc3)cc2)nc(C)n1 | 25.9 µM [rising, partial curve, poor fit] | –
57 | Cc1cc(C)c(S(=O)(=O)N(CC(=O)N2CCOCC2)C2CCCCC2)c(C)c1 | 10.3 µM [rising, partial curve] | –
58 | Clc1ccc2nnnc(-c3ccccc3)c2c1 | – | 29.1 µM [falling, partial curve, poor fit]
59 | O=C(NCc1ccncc1)C(=O)Nc1ccc2c(c1)OCO2 | 5.01 µM [falling, partial curve, poor fit] | –
60 | CC(C)Oc1nc(-c2ccccc2Cl)nc2ccccc12 | 35.5 µM [rising, single point] | –
61 | CCn1c2ccccc2c2cc(NC(=O)c3ccco3)ccc21 | 5.17 µM [rising, full curve] | –
62 | COc1ccccc1C(=O)NC(=S)NNC(=O)c1sc2ccccc2c1Cl | 23.1 µM [falling, partial curve, poor fit] | –
